# These are yes or no findings as the source states them, for the method shown. Binding seen in cells or lysates may run through a third protein. Some binding calls cover weakened binding; strength is not graded here.
# Chains of the proteins cited; added tags and fusions are not shown.
# UniProt A0A3L7ISI1: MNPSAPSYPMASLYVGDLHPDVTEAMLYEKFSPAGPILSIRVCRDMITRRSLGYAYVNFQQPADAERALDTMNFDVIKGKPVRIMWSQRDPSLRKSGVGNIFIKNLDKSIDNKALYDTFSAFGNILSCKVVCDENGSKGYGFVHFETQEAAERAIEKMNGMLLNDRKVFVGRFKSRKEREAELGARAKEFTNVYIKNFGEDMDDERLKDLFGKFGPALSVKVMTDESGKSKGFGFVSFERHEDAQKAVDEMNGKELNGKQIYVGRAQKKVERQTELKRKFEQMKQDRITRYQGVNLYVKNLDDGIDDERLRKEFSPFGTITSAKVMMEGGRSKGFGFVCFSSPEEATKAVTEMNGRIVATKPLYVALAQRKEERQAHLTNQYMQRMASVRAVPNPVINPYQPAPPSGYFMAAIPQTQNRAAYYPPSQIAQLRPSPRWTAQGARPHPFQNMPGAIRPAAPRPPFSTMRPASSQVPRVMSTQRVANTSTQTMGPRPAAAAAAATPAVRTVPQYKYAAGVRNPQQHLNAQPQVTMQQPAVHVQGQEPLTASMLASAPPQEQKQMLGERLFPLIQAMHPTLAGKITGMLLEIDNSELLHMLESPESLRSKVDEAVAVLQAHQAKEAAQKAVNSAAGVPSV
# Biological target: eIF4E cap-binding protein (hamster (endogenous in BHK))
# Experiment: pull-down; m7-GTP sepharose incubated overnight at 4°C with RNase-treated cytoplasmic lysates of BHK or BHK-NV replicon cells; bound proteins analysed by western blot
substance,measurement,value
poly-A binding protein (PABP) (from UniProt A0A3L7ISI1 1-636),binding,binds
